Some of the results follow. Values are raw readings; no control value is given beside them.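 Primary screen: polymyxin B was added at a level permeabilizing Salmonella outer membranes while sparing inner membranes. DMSO wells, both with and without polymyxin B, established maximum growth. Plate-to-plate variation meant each plate was ranked on its own, and the lowest-OD600 compounds were selected as hits.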
Test system: Salmonella enterica serovar Typhimurium SL1344
Assay: bacterial growth OD600 after 18 h with compound and polymyxin B; higher = more bacterial growth (less inhibition)
Settings: 50 µM, Mueller-Hinton broth

| Structure (SMILES) | bacterial growth OD600 (polymyxin B 0.75 µg/mL) | bacterial growth OD600 (polymyxin B 1 µg/mL) |
| --- | --- | --- |
| Fc1ccccc1Oc1ncccc1CNCc1cccn1-c1cccnc1 | 0.783 |  |
| CN(CCC1CCCCO1)C(=O)c1csc2nc(-c3cccc(F)c3)cn12 (stereo unspecified) |  | 1.17 |
| O=C(CSc1ccccc1)N1CCc2onc(-c3ccc(Cl)cc3)c2C1 | -0.001 |  |
| Cn1cc(CN2CCCC(C(=O)c3nccn3C)C2)c(-c2ccc3c(c2)OCCO3)n1 (stereo unspecified) |  | 1 |
| O=C(NCc1cccs1)c1cc(COc2ccccc2)[nH]n1 | 0.424 |  |
| O=C(NCc1ccccn1)C1CCCN(C2CCN(Cc3ccccc3)CC2)C1 (stereo unspecified) | 0.817 |  |
| COc1ccc(OCc2cc(C(=O)NCc3c(C)n[nH]c3C)n[nH]2)c(Cl)c1 |  | 1.05 |
| CCOC(=O)C1(Cc2ccc(Cl)cc2)CCN(C(=O)C2CC23CCCC3)CC1 (stereo unspecified) |  | 0.014 |
| CCN1CCN(C2(C(=O)NCCCOC(C)C)Cc3ccccc3C2)CC1 | 0.967 |  |
| CC(C)(C)CN1CCOc2ccc(C(C)(O)COc3ccccc3)cc2C1 (stereo unspecified) | 0.074 |  |
| CCc1csc(CNC(=O)c2ccc(N(C)Cc3cnn(C)c3)nc2)n1 | 0.789 |  |
| COc1ccc(/C=C/CN2CCCC(CO)(Cc3cccc(Cl)c3)C2)cc1 (stereo unspecified) |  | 0.682 |
| O=C(CCc1nnc(CCCc2ccccc2)o1)N1CCN(c2ccncc2)CC1 |  | 0.903 |
| COc1cccc(-c2nc(CN(CCO)CC34CC5CC(CC(C5)C3)C4)c(C)o2)c1OC | 0.611 |  |
| Cc1cc(C)n(CC(=O)NCc2cccnc2Oc2ccccc2F)n1 | 0.848 |  |
| O=C1CCC(CCC(=O)NC2(c3ccccc3)CC2)(Cc2ccc(F)cc2)N1 (stereo unspecified) | 0.829 |  |
| O=C(CCc1cccnc1)N1CCc2onc(-c3ccc(F)c(F)c3)c2C1 | 0.83 |  |
| COc1ccc(CC2(CCC(=O)N(C)CC(C)C)CCC(=O)N2)c2ccccc12 (stereo unspecified) | 0.745 |  |
| COCCN(C)Cc1nc(Cc2ccccc2Cl)no1 |  | 0.859 |
| COc1cccc(-c2cc(CC3(O)CCN(CC4CC=CCC4)CC3)on2)c1 (stereo unspecified) |  | 0.85 |
| Cc1c(C(=O)NC(CCn2cncn2)c2ccccc2)oc2c(F)cccc12 (stereo unspecified) | 0.794 |  |

4 consecutive entries from above, for reference:

| Structure (SMILES) | bacterial growth OD600 (polymyxin B 0.75 µg/mL) | bacterial growth OD600 (polymyxin B 1 µg/mL) |
| --- | --- | --- |
| CCOC(=O)C1(Cc2ccc(Cl)cc2)CCN(C(=O)C2CC23CCCC3)CC1 (stereo unspecified) |  | 0.014 |
| CCN1CCN(C2(C(=O)NCCCOC(C)C)Cc3ccccc3C2)CC1 | 0.967 |  |
| CC(C)(C)CN1CCOc2ccc(C(C)(O)COc3ccccc3)cc2C1 (stereo unspecified) | 0.074 |  |
| CCc1csc(CNC(=O)c2ccc(N(C)Cc3cnn(C)c3)nc2)n1 | 0.789 |  |

From the supplement of paper PMC12889115
